Measurements reported in PubChem BioAssay AID652248 (Drosophila RNAi Screening Center, 2013).

Aim: 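Kinase and phosphatase regulators of cell lengthening and shape variety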 (primary screen)
System: cultured Drosophila hemocytes
Knock-down reagent: long dsRNA against Drosophila genes
Detection: 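Automated microscopy of stained actin, tubulin and nuclei; single-cell shape measures assigned to five reference shape types, giving a score per dsRNA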
Scale: elongated score: higher = more elongated bipolar cells; normal round score: higher = more normal rounded cells
Rule for the call: 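Hits show a significant increase of elongated cells; higher rank given where elongated cells rose as other shape types fell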
The whole screen tested 863 reagents; below is a part drawn at random. Of all reagents, 32 (3.7%) are marked active. 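Calls also used reproducibility and a similarity ranking whose scores are not deposited; many active genes show only modest elongated scores.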 The numbers tell different reagents against one gene apart. Further read-outs or replicates are left out here. Not given: the amount of reagent, the time to read-out.

target,reagent no.,"elongated score, rep 1","normal round score, rep 1",call
CG4041,1,-0.53,0.6,inactive
CG4041,2,0,-1.02,inactive
PpY-55A,1,6.37,-3.24,inactive
PpY-55A,2,-0.39,-0.18,inactive
PpY-55A,3,0.14,-0.8,inactive
CG42366,1,-0.53,0.32,inactive
CG42366,2,-0.53,-0.8,inactive
vari,1,2.28,-1.52,inactive
CG4629,1,0.31,-1.94,inactive
CG4629,2,0.24,-0.95,inactive
Slob,1,0.65,-0.63,inactive
dlg1,1,-0.53,-1.98,inactive
dlg1,2,0.83,-1.85,inactive
dlg1,3,-0.24,0.06,inactive
dlg1,4,6.11,-3.66,inactive
dco,1,0.36,-0.04,inactive
dco,2,2.57,-1.77,inactive
CG11426,1,-0.53,-0.51,inactive
CG11426,2,-0.33,-0.23,inactive
CG1344,1,2.3,-1.41,inactive
CG32687,1,-0.39,-1.2,inactive
CG32687,2,-0.29,-2.99,inactive
Pp2B-14D,1,5.67,-2.33,inactive
Pp2B-14D,2,-0.53,-2.46,inactive
CG2201,1,0.82,-1.83,inactive
Synj,1,0.16,-0.67,inactive
sls,1,0.95,-0.8,inactive
sls,2,-0.53,0.98,inactive
sls,3,-0.53,-0.53,inactive
